Data reported in patent publication US6911542B2, “Pyrazino[1′,2′:1,6]pyrido[3,4b]indole derivatives” (Lilly Icos LLC., priority 2000, dated 2005).
The match of structure and compound is tentative.

Biological target: human recombinant PDE5 (Homo sapiens, UniProt O76074)
Assay: cGMP-PDE one-step inhibition assay, human recombinant PDE5
Assay type: biochemical
Settings: read-out: PDE5 IC50, 0.15 μM 8-[H3]-cGMP, 30 min incubation

- IC50: 100 nM
Compound: O=C1[C@H]2Cc3c([nH]c4ccccc34)[C@@H](c3ccc4occc4c3)N2C(=O)CN1CCn1cccn1
